Assay results as given in article PMC3958334.
Results are given in words; binding and its absence hold for the method and conditions named. Binding seen in cells or lysates may run through a third protein. A result given as binding can be weak or reduced; the word gives no strength. Tags and fused reporters may be left off the sequences shown.

Tests used:
Assay in all cases: co-IP; S2 cells transfected with plasmids for two tagged STRIPAK proteins (binary co-expression); lysates immunoprecipitated with anti-HA or anti-HSV; immunoblot of immunoprecipitates and lysates
HA-CKA (Drosophila) = biological target: HA-CKA (Drosophila)
HSV-STRIP (Drosophila) = biological target: HSV-STRIP (Drosophila)
HSV-SLMAP (Drosophila) = biological target: HSV-SLMAP (Drosophila)

Measured: binding

B1: GFP-FGOP2 (protein, UniProt Q9VM65 1-315)
chain: MSNLSVGQIIMDAQRMASRVKDLDALGTALLEEAENNNRLVESLRQYQDDIESLNRISNNKTNADMVNRIQQQNINSSEILKENRELKIFIEDYERAMELMMQKYREHTVSKVLDSKFSFKELYNERMWQVIREQREKINEMAAVMQLAASVDDGVVQRELQTISQLRLENETLRELLQISKQYGSSQRPIRESDHLLEEKAVQTDSTADDSADDLSISGASVENMNNNSVIQMYSSPEQPAKVAGTTNSFNTAPVHSQSETQAPSVTLETAPPGEEPLANDNNNGPAVNTTSAPPPATTSNESVEDQATVAPAT
binds: all assays above
